# Some of the results follow.
# Key:
# Test in all cases: glycan array binding signal (z-score within array); higher = stronger binding
# Conditions in all cases: glycan notation: IUPAC condensed, linker removed
# [1] = target: Gal(b1-3)GlcNAc(b1-3)Gal(b1-4)GlcNAc(b1-2)Man(a1-3)[Gal(b1-3)GlcNAc(b1-3)Gal(b1-4)GlcNAc(b1-2)Man(a1-6)]Man(b1-4)GlcNAc(b1-4)GlcNAc
# Outline: (§1)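 From the Consortium for Functional Glycomics database, 3228 arrays were curated, keeping only those whose protein sequence was available. Binding is given as a within-array Z-score averaged across arrays sharing a protein sequence and across linkers. Negative Z-scores can be read as non-binding.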
# [2] = target: Gal(b1-3)GlcNAc(b1-3)Gal(b1-4)GlcNAc(b1-2)[Gal(b1-3)GlcNAc(b1-3)Gal(b1-4)GlcNAc(b1-6)]Man(a1-6)[Gal(b1-3)GlcNAc(b1-3)Gal(b1-4)GlcNAc(b1-2)Man(a1-3)]Man(b1-4)GlcNAc(b1-4)[Fuc(a1-6)]GlcNAc
# Outline: as §1
# [3] = target: Gal(b1-3)GlcNAc(b1-3)Gal(b1-4)GlcNAc(b1-3)Gal(b1-4)GlcNAc(b1-2)[Gal(b1-3)GlcNAc(b1-3)Gal(b1-4)GlcNAc(b1-3)Gal(b1-4)GlcNAc(b1-6)]Man(a1-6)[Gal(b1-3)GlcNAc(b1-3)Gal(b1-4)GlcNAc(b1-3)Gal(b1-4)GlcNAc(b1-2)Man(a1-3)]Man(b1-4)GlcNAc(b1-4)[Fuc(a1-6)]GlcNAc
# Outline: as §1
# [4] = target: Gal(b1-3)GlcNAc(b1-3)Gal(b1-4)GlcNAc(b1-6)[Gal(b1-3)GlcNAc(b1-3)]Gal(b1-4)Glc
# Outline: as §1
# [5] = target: Gal(b1-3)GlcNAc(b1-3)Gal(b1-4)[Fuc(a1-3)]GlcNAc
# Outline: as §1
# [6] = target: Gal(b1-3)GlcNAc(b1-3)Gal(b1-4)[Fuc(a1-3)]GlcNAc(b1-6)[Gal(b1-3)GlcNAc(b1-3)]Gal(b1-4)Glc
# Outline: as §1
# [7] = target: Gal(b1-3)GlcNAc(b1-3)GalNAc
# Outline: as §1
# [8] = target: Gal(b1-3)GlcNAc(b1-6)Gal(b1-4)GlcNAc
# Outline: as §1
# [9] = target: Gal(b1-3)GlcNAc(b1-6)GalNAc
# Outline: as §1
# [10] = target: Gal(b1-3)GlcNAc(b1-6)[Gal(b1-3)]GalNAc
# Outline: as §1
# Gal(b1-3)GlcNAc6S = target: Gal(b1-3)GlcNAc6S
# Outline: as §1
# [11] = target: Gal(b1-3)[Fuc(a1-4)]GlcNAc
# Outline: as §1
# [12] = target: Gal(b1-3)[Fuc(a1-4)]GlcNAc(b1-2)Man
# Outline: as §1
# [13] = target: Gal(b1-3)[Fuc(a1-4)]GlcNAc(b1-2)Man(a1-3)[Gal(b1-3)[Fuc(a1-4)]GlcNAc(b1-2)Man(a1-6)]Man(b1-4)GlcNAc(b1-4)[Fuc(a1-6)]GlcNAc
# Outline: as §1
# [14] = target: Gal(b1-3)[Fuc(a1-4)]GlcNAc(b1-3)Gal(b1-3)[Fuc(a1-4)]GlcNAc
# Outline: as §1
# [15] = target: Gal(b1-3)[Fuc(a1-4)]GlcNAc(b1-3)Gal(b1-4)[Fuc(a1-3)]GlcNAc
# Outline: as §1
# [16] = target: Gal(b1-3)[Fuc(a1-4)]GlcNAc(b1-6)GalNAc
# Outline: as §1
# [17] = target: Gal(b1-3)[GlcNAc(b1-6)]GalNAc
# Outline: as §1
# [18] = target: Gal(b1-3)[Neu5Ac(a2-6)]GalNAc
# Outline: as §1
# [19] = target: Gal(b1-3)[Neu5Ac(a2-6)]GlcNAc(b1-4)Gal(b1-4)Glc
# Outline: as §1
# [20] = target: Gal(b1-3)[Neu5Ac(b2-6)]GalNAc
# Outline: as §1
# Gal(b1-4)Gal = target: Gal(b1-4)Gal
# Outline: as §1
# [21] = target: Gal(b1-4)GalNAc(a1-3)[Fuc(a1-2)]Gal(b1-4)GlcNAc
# Outline: as §1
# [22] = target: Gal(b1-4)GalNAc(b1-3)[Fuc(a1-2)]Gal(b1-4)GlcNAc
# Outline: as §1
# Gal(b1-4)Glc = target: Gal(b1-4)Glc
# Outline: as §1
# Gal(b1-4)Glc6S = target: Gal(b1-4)Glc6S
# Outline: as §1
# Gal(b1-4)GlcNAc = target: Gal(b1-4)GlcNAc
# Outline: as §1
# [23] = target: Gal(b1-4)GlcNAc(a1-6)Gal(b1-4)GlcNAc
# Outline: as §1
# Gal(b1-4)GlcNAc(b1-2)Man = target: Gal(b1-4)GlcNAc(b1-2)Man
# Outline: as §1
# [24] = target: Gal(b1-4)GlcNAc(b1-2)Man(a1-3)Man(b1-4)GlcNAc(b1-4)GlcNAc
# Outline: as §1
# [25] = target: Gal(b1-4)GlcNAc(b1-2)Man(a1-3)[Gal(b1-4)GlcNAc(b1-2)Man(a1-6)]Man(b1-4)GlcNAc(b1-4)GlcNAc
# Outline: as §1
# [26] = target: Gal(b1-4)GlcNAc(b1-2)Man(a1-3)[Gal(b1-4)GlcNAc(b1-2)Man(a1-6)]Man(b1-4)GlcNAc(b1-4)[Fuc(a1-6)]GlcNAc
# Outline: as §1
# [27] = target: Gal(b1-4)GlcNAc(b1-2)Man(a1-3)[Gal(b1-4)GlcNAc(b1-2)Man(a1-6)][Gal(b1-4)GlcNAc(b1-4)]Man(b1-4)GlcNAc(b1-4)[Fuc(a1-6)]GlcNAc
# Outline: as §1
# [28] = target: Gal(b1-4)GlcNAc(b1-2)Man(a1-3)[Gal(b1-4)GlcNAc(b1-2)Man(a1-6)][GlcNAc(b1-4)]Man(b1-4)GlcNAc(b1-4)[Fuc(a1-6)]GlcNAc
# Outline: as §1
# [29] = target: Gal(b1-4)GlcNAc(b1-2)Man(a1-3)[GlcNAc(b1-2)Man(a1-6)]Man(b1-4)GlcNAc(b1-4)GlcNAc
# Outline: as §1
# [30] = target: Gal(b1-4)GlcNAc(b1-2)Man(a1-3)[GlcNAc(b1-4)][Gal(b1-4)GlcNAc(b1-2)Man(a1-6)]Man(b1-4)GlcNAc(b1-4)GlcNAc
# Outline: as §1
# [31] = target: Gal(b1-4)GlcNAc(b1-2)Man(a1-3)[Man(a1-6)]Man(b1-4)GlcNAc(b1-4)GlcNAc
# Outline: as §1
# [32] = target: Gal(b1-4)GlcNAc(b1-2)Man(a1-6)Man(b1-4)GlcNAc(b1-4)GlcNAc
# Outline: as §1
binder,measurement,setting,value
"HA-61200 (Pseudomonas aeruginosa), Q02SP8_PSEAB (protein) MNKCYALVWNVSQGCWNVVSEGSRRRGKPAGAKAAIASVLALLGATALAPAYALPSGGTVVGGSANGEIHLSGGNSLSVNQKVDKLIANWDSFSVAAGERVIFNQPSSSSIALNRVIGTKASDIQGRIDANGQVFLVNPNGVLFGRGAQVNVGGLVASTLDITDAEFNGNSSRYRFTGPSTNGVLNHGGAITAAEGGSIALLGAQVDNRGTVLAQMGGVGLGAGSDLTLNFDGNKLLDIRVDAGVANALASNGGLLKADGGRVLMAARTANALLNTVVNSQGAIEARSLRGKNGRIVLDG",glycan array binding signal (z-score),[1],-0.142
same,glycan array binding signal (z-score),[2],1.69
same,glycan array binding signal (z-score),[3],2.44
same,glycan array binding signal (z-score),[4],-0.286
same,glycan array binding signal (z-score),[5],0.98
same,glycan array binding signal (z-score),[6],-1.04
same,glycan array binding signal (z-score),[7],-1.07
same,glycan array binding signal (z-score),[8],-0.809
same,glycan array binding signal (z-score),[9],0.257
same,glycan array binding signal (z-score),[10],-0.334
same,glycan array binding signal (z-score),Gal(b1-3)GlcNAc6S,0.306
same,glycan array binding signal (z-score),[11],-0.017
same,glycan array binding signal (z-score),[12],1.09
same,glycan array binding signal (z-score),[13],0.349
same,glycan array binding signal (z-score),[14],-0.534
same,glycan array binding signal (z-score),[15],-0.62
same,glycan array binding signal (z-score),[16],-0.005
same,glycan array binding signal (z-score),[17],-0.146
same,glycan array binding signal (z-score),[18],-0.393
same,glycan array binding signal (z-score),[19],-0.176
same,glycan array binding signal (z-score),[20],-1.35
same,glycan array binding signal (z-score),Gal(b1-4)Gal,-0.639
same,glycan array binding signal (z-score),[21],-0.022
same,glycan array binding signal (z-score),[22],-0.396
same,glycan array binding signal (z-score),Gal(b1-4)Glc,-0.3
same,glycan array binding signal (z-score),Gal(b1-4)Glc6S,-0.864
same,glycan array binding signal (z-score),Gal(b1-4)GlcNAc,0.232
same,glycan array binding signal (z-score),[23],-0.452
same,glycan array binding signal (z-score),Gal(b1-4)GlcNAc(b1-2)Man,0.168
same,glycan array binding signal (z-score),[24],-0.669
same,glycan array binding signal (z-score),[25],-0.964
same,glycan array binding signal (z-score),[26],0.08
same,glycan array binding signal (z-score),[27],-0.382
same,glycan array binding signal (z-score),[28],-0.721
same,glycan array binding signal (z-score),[29],-0.742
same,glycan array binding signal (z-score),[30],-0.203
same,glycan array binding signal (z-score),[31],-0.922
same,glycan array binding signal (z-score),[32],-0.572

# Laid out differently: results already given.
binder	measurement	setting	value
HA-61200 (Pseudomonas aeruginosa), Q02SP8_PSEAB (protein) MNKCYALVWNVSQGCWNVVSEGSRRRGKPAGAKAAIASVLALLGATALAPAYALPSGGTVVGGSANGEIHLSGGNSLSVNQKVDKLIANWDSFSVAAGERVIFNQPSSSSIALNRVIGTKASDIQGRIDANGQVFLVNPNGVLFGRGAQVNVGGLVASTLDITDAEFNGNSSRYRFTGPSTNGVLNHGGAITAAEGGSIALLGAQVDNRGTVLAQMGGVGLGAGSDLTLNFDGNKLLDIRVDAGVANALASNGGLLKADGGRVLMAARTANALLNTVVNSQGAIEARSLRGKNGRIVLDG	glycan array binding signal (z-score)	[30]	-0.203
same	glycan array binding signal (z-score)	[31]	-0.922
